# In all, about 340,000 compounds went through this assay and about 170 (0.05%) were called active. The shares of active, inactive and inconclusive entries below differ from those in the screen. Calls come from the whole dose curve; as a rule, active = well fitted inhibition curve with a large enough effect in the signal ratio, with a control signal flat (not every such curve was filed as active); inconclusive = small, poorly fitted or top-dose-only effect, or effect the other way, or a change in a side signal; inactive = flat fitted curve, though single readings scatter; the % refers to the signal ratio. Potencies of inconclusive entries are doubtful fits and often do not repeat.
# Assay: qHTS Assay to Find Inhibitors of Chronic Active B-Cell Receptor Signaling;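 for activity change, negative = inhibition: plate controls were basal doxycycline-induced cells for no effect and cells given 10 µM MG132 for full effect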
# Settings: ABC-DLBCL IkBa-CBG/CBR reporter, luminescence ratio (green luciferase fused to IkBa over red control in TMD8 lymphoma cells), 4 h; activity change, negative = inhibition: at 46.1 µM (top of the series)
# How it was run: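 Compounds up to 46 uM were incubated four hours with TMD8 cells whose green CBG68 luciferase is fused to IkappaBalpha; red CBR luminescence normalised the signal, and concentration-effect curves were fitted to fusion, red and ratio data.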
# Potency is the fitted concentration of half-maximal effect.
Compound,"activity change, negative = inhibition",Potency
CC(C)N(C)S(=O)(=O)c1ccc(NC(=O)CSC(=S)N2CCCC2)cc1,inactive: -10.8%,–
NC(N)=Nc1cc2ccccc2c2ccccc12,inconclusive: 6.16%,–
CCOC(=O)Cc1csc(SCC(=O)Nc2cc(C)ccc2OC)n1,inconclusive: -5.42%,–
CCn1cc(CCC(=O)NCc2cccc(OC)c2OC)c2ccccc21,inactive: -4.3%,–
CCOc1ccccc1NC(=O)Cn1nc(-c2ccco2)ccc1=O,inconclusive: 1.91%,–
COc1ccc2c(c1)C=C(CN1CCN(C3CCCC3)C(CCO)C1)CO2 (stereo unspecified),inactive: -10.8%,–
COc1ccc(NC(=O)Nc2cccc3c2O[C@H](CN(C)C(=O)Nc2ccc(OC)cc2)[C@@H](C)CN([C@H](C)CO)C3=O)cc1,inactive: 0.745%,–
CCn1cc(Cl)c(C(=O)Nc2ccc3c(c2)OCCO3)n1,inconclusive: -13.7%,–
CCCS(=O)(=O)NCc1cn2c(C)csc2n1,inconclusive: 3.88%,–
CCOC(=O)C1CCC(CN(Cc2ccc(OC)cc2)S(=O)(=O)c2ccc(C)cc2)CC1 (stereo unspecified),inconclusive: 16.6%,–
O=C(Nc1cc(Cl)cc(Cl)c1)c1ccc(F)c(S(=O)(=O)N2CCCC2)c1,inconclusive: 1.65%,–
Cc1nn(-c2ccc(Cl)cc2)c2[nH]c(CCl)cc(=O)c12,–,"inconclusive: 15.8 µM [rising, partial curve, poor fit]"
O=C(Nc1cccc(C(F)(F)F)c1)c1cc2c(=O)c3ccccc3oc2nc1C(F)(F)F,inconclusive: 4.79%,–
Cn1c(CNC(=O)c2ccccc2F)nnc1SCC(=O)c1ccccc1,inconclusive: -3.67%,–
O=C(Cn1c(=O)oc2cc(S(=O)(=O)N3CCCC3)ccc21)N1CCCC1,inactive: 4.5%,–
Cc1ccccc1-n1nc(C(=O)O)c(C)c(C#N)c1=O,inconclusive: -1.22%,–
CN(C)S(=O)(=O)c1cccc(NC(=O)COc2cccc3ccccc23)c1,–,"inconclusive: 20.6 µM [falling, partial curve]"
Cc1cccc(NC(=O)CCCc2ccccc2)c1C,inconclusive: -13.3%,–
CCOC(=O)c1ccc(N2C(=O)C=C(N3CCOCC3)C2=O)cc1,inactive: 3.27%,–
O=C(Cn1cnc2c(nnn2Cc2ccc(F)cc2)c1=O)OCc1ccccc1,inactive: 1.33%,–
Clc1cccc(Cl)c1NC1=NCCC1,inconclusive: 0.117%,–
N#CCCN(Cc1ccccc1)C(=S)Nc1ccc(F)cc1,inactive: 0.634%,–

# By substructure: those above with an aryl thioether with sulfur outside any ring (two)
Compound,"activity change, negative = inhibition",Potency
CCOC(=O)Cc1csc(SCC(=O)Nc2cc(C)ccc2OC)n1,inconclusive: -5.42%,–
Cn1c(CNC(=O)c2ccccc2F)nnc1SCC(=O)c1ccccc1,inconclusive: -3.67%,–

# Next compounds

Compound,"activity change, negative = inhibition",Potency
Cc1nonc1NC(=O)CSc1nc(C2CCCCC2)nc2ccccc12,–,"inconclusive: 3.16 µM [falling, full curve, poor fit]"
Cc1nc(N)sc1N=Nc1ccccc1C(F)(F)F,inconclusive: -19.9%,–
COc1ccc(CNC(=O)C(c2ccco2)N(C(=O)Cc2cccs2)c2cccnc2)cc1 (stereo unspecified),inconclusive: 16.9%,–
Cn1nc([N+](=O)[O-])nc1S(C)(=O)=O,inconclusive: -0.831%,–
COc1cc(/C=N/NC(=O)c2ccncc2)ccc1OC(=O)c1cccc(F)c1,inconclusive: 6.54%,–
CC1CCc2c(sc(NC(=O)/C=C/c3cccs3)c2C(=O)O)C1 (stereo unspecified),–,"inconclusive: 7.94 µM [falling, partial curve]"
O=C(c1ccc(S(=O)(=O)NCc2ccco2)cc1)N1CCN(c2ccc(F)cc2)CC1,inconclusive: 5.21%,–
O=C(O)c1nnn(-c2ccc([N+](=O)[O-])cc2)c1-c1ccccc1,inconclusive: 8.02%,–
CC(=O)Nc1nc(C)c(CCCOc2ccc([N+](=O)[O-])cc2)c(=O)[nH]1,inconclusive: 8.05%,–
Cc1cc(O)ccc1Nc1nc(-c2sc(N)nc2C)cs1,–,"inconclusive: 20.6 µM [falling, partial curve, poor fit]"
COc1ccccc1NC(=O)c1cc(-c2cc(OC)c(OC)c(OC)c2)nc2ccccc12,inconclusive: 3.23%,–
CCC1SC2=NC(C)=C(C(=O)OC)C(c3ccc(C)cc3)N2C1=O (stereo unspecified),inconclusive: 10.6%,–
Cc1ccccc1-c1ncc(CN2CCN(C3CCCC3)C(CCO)C2)cn1 (stereo unspecified),inconclusive: 7.53%,–
C=CCn1cc(/C=N/NC(=O)COc2cccc3cccnc23)c2ccccc21,inactive: -6.25%,–
O=S(=O)(N/N=C\c1ccc(-c2ccccc2Cl)o1)c1ccccc1,inactive: 0.319%,–
Cc1cc(NC(=O)CSc2n[nH]c(-c3ccc(Cl)cc3Cl)n2)no1,inconclusive: -19.9%,–
O=C(Nc1ccc2[nH]ncc2c1)c1ccc(F)cc1,–,"inconclusive: 12.6 µM [falling, single point]"
O=C(Nc1cccc(CCc2ccccn2)c1)c1ccc(Cl)cc1,–,"inconclusive: 10 µM [falling, partial curve, poor fit]"
CCOc1ccccc1OCCCC(=O)N1CCN(S(=O)(=O)c2ccc(C)cc2C)CC1,inconclusive: 0.98%,–
Cc1ccccc1NC(=O)c1cc2ccccn2n1,–,"inconclusive: 35.5 µM [rising, single point]"
N/C(=N\OC(=O)CCc1ccccc1)c1cccnc1,–,"inconclusive: 35.5 µM [falling, single point]"
COc1ccc2cc3cc(C(=O)NCc4cccnc4)oc3nc2c1,inactive: 3.99%,–

Compound,"activity change, negative = inhibition",Potency
Cc1ccc(C)c(S(=O)(=O)N2CCCN(C)CC2)c1,inconclusive: -17.4%,–
CCCc1cc(=O)n2[nH]c(C)nc2n1,inconclusive: -0.497%,–
CSC1=NCCN1C(=O)c1c(F)cccc1Cl,inconclusive: 10.1%,–
Cc1ccc(S(=O)(=O)/N=C(/Nc2ccc([N+](=O)[O-])cc2[N+](=O)[O-])c2ccccc2)cc1,inconclusive: 11.6%,–
CCCCn1c(=O)[nH]c(=O)c2c1nc(-c1ccccc1F)n2Cc1ccccc1OC,inconclusive: -14.3%,–
CCc1nnc(NC(=O)c2cc3ccccc3oc2=O)s1,inconclusive: 8.65%,–
CCOC(=O)c1ccc(NC(=O)c2ccc3c(c2)OCO3)cc1,–,"inconclusive: 5.8 µM [falling, partial curve]"
CCOc1ccccc1C1C(C#N)=C(N)Oc2n[nH]c(CC)c21 (stereo unspecified),inconclusive: -12.8%,–
CC(NC(=O)c1ccco1)C(=O)N1CCN(c2cccc(C(F)(F)F)c2)CC1 (stereo unspecified),inactive: -2.7%,–
Cc1cc([N+](=O)[O-])nn1CC(=O)Nc1ccc(F)cc1,inconclusive: -13.7%,–
Cn1ccnc1Sc1ccccc1[N+](=O)[O-],inconclusive: -28.3%,–
CC(C)c1ccc(S(=O)(=O)NC2CCS(=O)(=O)C2)cc1 (stereo unspecified),inactive: 2.06%,–
Fc1ccccc1N1CCN(CC2CCCCC2)CC1,inactive: 2.27%,–
O=C(CSc1nc2ccccc2c(=O)n1NC(=O)c1ccccc1)c1ccccc1,–,"inconclusive: 31.6 µM [falling, partial curve, poor fit]"
O=C(CSC(=S)N1CCCCC1)c1c(F)cccc1F,–,"inconclusive: 35.5 µM [cytotoxic, single point]"
CCCCC(=O)Nc1cccc(NC(=O)c2ccc(Br)cc2)c1,inconclusive: -20.8%,–
Oc1ccc(C=Nc2ccccc2-c2nc3ccccc3[nH]2)c(O)c1,inconclusive: 1.14%,–
COc1ccc(Cl)cc1NC(=O)Nc1ccc(Br)cn1,inconclusive: 21.8%,–
Cc1coc(C)c1C(=O)Nc1ccc2ccccc2c1,–,"inconclusive: 11.2 µM [falling, partial curve, poor fit]"
O=C(CN1C(=O)NC2(CCCC2)C1=O)N1CCN(c2cccc(C(F)(F)F)c2)CC1,inactive: -4.83%,–
CC(O)CNc1nc2c(c(=O)n(C)c(=O)n2C)n1CCc1ccccc1 (stereo unspecified),inactive: 1.15%,–
CCS(=O)(=O)N1CCC(C(=O)Nc2ccc(C(C)=O)cc2)CC1,inactive: -2.42%,–

Compound,"activity change, negative = inhibition",Potency
Cc1ccc(C(=O)N2CCN(CCNC(=O)C(=O)NC(C)C)CC2)cc1,inactive: 0.785%,–
O=C(Cc1cccc(C(F)(F)F)c1)NCc1cccnc1,inactive: -3.15%,–
COc1cc(/C=C/c2cc(C(=O)O)c3ccccc3n2)ccc1OC(F)F,inconclusive: -18.9%,–
O=C(CN1C(=O)NC2NC(=O)NC21)NN=C1CCCC1 (stereo unspecified),inconclusive: 1.4%,–
CNC(=O)CSc1nnc(-c2cccc(S(=O)(=O)N3CCOCC3)c2)n1-c1ccc(F)cc1,inconclusive: -2.51%,–
O=C(O)c1cccc(NC(=S)NCc2ccccc2)c1,–,"inconclusive: 31.6 µM [rising, partial curve]"
Cc1ccc(S(=O)(=O)N2CCN(C(=O)CSc3nncs3)CC2)cc1,inactive: 3.84%,–
CCCCNC(=O)Cn1cnc([N+](=O)[O-])n1,inactive: 1.57%,–
Cc1csc(NC(=O)Cc2c[nH]c3ccccc23)n1,inconclusive: -0.438%,–
O=C(Cc1ccccn1)Nc1ccccc1,inconclusive: 2.07%,–
Clc1ccccc1-c1nc(/C=N/N2CCOCC2)c2ccccn12,–,"inconclusive: 31.6 µM [falling, partial curve, poor fit]"
CCC(=O)N(c1nnc(SCC(=O)Nc2ccccc2Cl)s1)C1CC1,inactive: -2.66%,–
Cc1sc(NC(=O)CN(C)C2CCCCC2)nc1-c1ccc2c(c1)CCN2S(=O)(=O)c1ccccc1,inconclusive: -7.48%,–
CCCn1nnc(NC(=O)c2cccc(OCC)c2)n1,–,"inconclusive: 29.1 µM [falling, single point]"
Cc1cc(N2CCOCC2)ccc1/C=C1\NC(=O)N(CC(=O)Nc2ccccc2C)C1=O,inconclusive: -21.2%,–
COc1ccccc1NC(=S)N/N=C/c1cccc(C)c1,–,"inconclusive: 4.11 µM [falling, partial curve, poor fit]"
O=C(NNc1nc(N2CCOCC2)nc(N2CCOCC2)n1)Nc1ccc(Cl)cc1,inconclusive: 9.47%,–
COc1ccc(OC)c(C(=O)c2ccc(Cl)cc2)c1,inconclusive: -27%,–
Cc1cc(C)cc(NC(=O)CSc2nc3c(c(=O)n2C)SC(C)C3)c1 (stereo unspecified),inconclusive: 8.27%,–
N#Cc1c(-c2ccccc2)nc(N2CCN(Cc3ccccc3)CC2)[nH]c1=O,inconclusive: 4.42%,–

# In the list so far, 13 have a Cl atom.
Compound,"activity change, negative = inhibition",Potency
CCn1cc(Cl)c(C(=O)Nc2ccc3c(c2)OCCO3)n1,inconclusive: -13.7%,–
O=C(Nc1cc(Cl)cc(Cl)c1)c1ccc(F)c(S(=O)(=O)N2CCCC2)c1,inconclusive: 1.65%,–
Cc1nn(-c2ccc(Cl)cc2)c2[nH]c(CCl)cc(=O)c12,–,"inconclusive: 15.8 µM [rising, partial curve, poor fit]"
Clc1cccc(Cl)c1NC1=NCCC1,inconclusive: 0.117%,–
O=S(=O)(N/N=C\c1ccc(-c2ccccc2Cl)o1)c1ccccc1,inactive: 0.319%,–
Cc1cc(NC(=O)CSc2n[nH]c(-c3ccc(Cl)cc3Cl)n2)no1,inconclusive: -19.9%,–
O=C(Nc1cccc(CCc2ccccn2)c1)c1ccc(Cl)cc1,–,"inconclusive: 10 µM [falling, partial curve, poor fit]"
CSC1=NCCN1C(=O)c1c(F)cccc1Cl,inconclusive: 10.1%,–
COc1ccc(Cl)cc1NC(=O)Nc1ccc(Br)cn1,inconclusive: 21.8%,–
Clc1ccccc1-c1nc(/C=N/N2CCOCC2)c2ccccn12,–,"inconclusive: 31.6 µM [falling, partial curve, poor fit]"
CCC(=O)N(c1nnc(SCC(=O)Nc2ccccc2Cl)s1)C1CC1,inactive: -2.66%,–
O=C(NNc1nc(N2CCOCC2)nc(N2CCOCC2)n1)Nc1ccc(Cl)cc1,inconclusive: 9.47%,–
COc1ccc(OC)c(C(=O)c2ccc(Cl)cc2)c1,inconclusive: -27%,–

# — PubChem BioAssay AID493014 (National Center for Advancing Translational Sciences (NCATS), 2011)
